Earlier results, collected in patent publication US6998391B2, “Method for treating diseases associated with abnormal kinase activity” (SuperGen.Inc., priority 2002, dated 2006).
For at least one compound, name, drawing or mass did not settle the structure.

System: PI3K
Settings: animal model of ovarian cancer

For `O=c1cc(N2CCOCC2)oc2c(-c3ccccc3)cccc12` [LY294002], the PI3K activity inhibition is listed as “potently and selectively inhibit PI3K activity”.
